Test results: doi:10.1101/2020.08.12.247809
These are yes or no findings as the source states them, for the method shown. Binding seen in cells or lysates may run through a third protein. Some results given as binding are weak or reduced against the parent protein; the word gives no strength. Where a sequence is shown, tags or fusion partners need not be part of it.

Key:
Assay in all cases: pull-down
[1] = target: T1, Flag-Strep-KIAA1841(WT) (mouse) (UniProt Q68FF0)
T1 sequence: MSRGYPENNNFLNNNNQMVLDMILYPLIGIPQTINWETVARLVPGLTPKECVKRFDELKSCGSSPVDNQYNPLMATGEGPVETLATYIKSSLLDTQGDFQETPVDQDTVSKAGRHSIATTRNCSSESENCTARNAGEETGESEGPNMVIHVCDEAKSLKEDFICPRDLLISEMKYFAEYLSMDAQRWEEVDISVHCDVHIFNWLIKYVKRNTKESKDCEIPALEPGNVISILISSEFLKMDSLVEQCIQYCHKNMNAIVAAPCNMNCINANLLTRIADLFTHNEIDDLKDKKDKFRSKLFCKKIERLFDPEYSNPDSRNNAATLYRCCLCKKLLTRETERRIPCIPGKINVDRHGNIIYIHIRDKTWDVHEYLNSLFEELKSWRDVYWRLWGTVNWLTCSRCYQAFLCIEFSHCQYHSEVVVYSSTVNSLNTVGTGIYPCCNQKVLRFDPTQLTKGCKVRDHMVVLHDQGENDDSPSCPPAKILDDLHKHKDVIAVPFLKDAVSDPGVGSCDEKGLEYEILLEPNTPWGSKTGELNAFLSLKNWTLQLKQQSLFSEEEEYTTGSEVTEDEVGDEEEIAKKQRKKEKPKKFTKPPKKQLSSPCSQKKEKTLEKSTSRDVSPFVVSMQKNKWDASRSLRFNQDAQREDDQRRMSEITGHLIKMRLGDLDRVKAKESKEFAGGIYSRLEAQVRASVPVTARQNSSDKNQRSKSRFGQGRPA

[2] = target: T2, Flag-Strep-tagged KIAA1841▵SANT (mouse) (UniProt Q68FF0)
T2 sequence: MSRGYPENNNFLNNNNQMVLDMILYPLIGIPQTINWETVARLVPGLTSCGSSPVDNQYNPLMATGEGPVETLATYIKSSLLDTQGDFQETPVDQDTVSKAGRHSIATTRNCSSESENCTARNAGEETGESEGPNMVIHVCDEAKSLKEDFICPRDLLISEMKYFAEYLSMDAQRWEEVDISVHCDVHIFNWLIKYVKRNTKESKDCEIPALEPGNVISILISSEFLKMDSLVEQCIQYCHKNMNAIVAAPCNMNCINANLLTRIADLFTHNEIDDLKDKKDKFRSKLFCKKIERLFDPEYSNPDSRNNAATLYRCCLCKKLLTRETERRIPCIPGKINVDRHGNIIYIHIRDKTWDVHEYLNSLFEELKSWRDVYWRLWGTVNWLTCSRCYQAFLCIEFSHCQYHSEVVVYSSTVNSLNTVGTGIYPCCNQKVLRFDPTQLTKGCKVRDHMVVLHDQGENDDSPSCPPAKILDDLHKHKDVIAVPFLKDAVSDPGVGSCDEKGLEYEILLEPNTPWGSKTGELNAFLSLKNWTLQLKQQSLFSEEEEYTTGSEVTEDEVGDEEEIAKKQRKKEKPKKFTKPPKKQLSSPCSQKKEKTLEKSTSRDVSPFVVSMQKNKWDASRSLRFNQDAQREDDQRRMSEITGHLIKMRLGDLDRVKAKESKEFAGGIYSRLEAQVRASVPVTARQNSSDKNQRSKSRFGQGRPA

[3] = target: T3, Flag-Strep-tagged KIAA1841▵BTB (mouse) (UniProt Q68FF0)
T3 sequence: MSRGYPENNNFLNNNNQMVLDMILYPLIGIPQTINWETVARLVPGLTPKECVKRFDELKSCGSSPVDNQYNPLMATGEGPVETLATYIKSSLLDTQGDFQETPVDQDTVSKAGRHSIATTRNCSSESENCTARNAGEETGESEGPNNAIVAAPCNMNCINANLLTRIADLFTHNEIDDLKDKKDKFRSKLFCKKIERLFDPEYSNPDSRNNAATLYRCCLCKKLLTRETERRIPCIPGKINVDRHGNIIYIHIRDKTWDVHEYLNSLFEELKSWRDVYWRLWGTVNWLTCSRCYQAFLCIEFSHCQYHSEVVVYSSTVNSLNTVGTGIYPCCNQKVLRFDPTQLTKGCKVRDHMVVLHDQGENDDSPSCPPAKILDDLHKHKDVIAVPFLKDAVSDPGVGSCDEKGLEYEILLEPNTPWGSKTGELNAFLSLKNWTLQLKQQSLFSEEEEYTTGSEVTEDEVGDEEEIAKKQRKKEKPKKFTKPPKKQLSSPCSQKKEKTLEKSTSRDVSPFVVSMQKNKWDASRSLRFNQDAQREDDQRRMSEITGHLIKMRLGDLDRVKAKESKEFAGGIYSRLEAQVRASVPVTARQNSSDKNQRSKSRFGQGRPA

Measured: binding

B1: GFP-KIAA1841 (protein, UniProt Q68FF0-1 1-718)
chain: MSRGYPENNNFLNNNNQMVLDMILYPLIGIPQTINWETVARLVPGLTPKECVKRFDELKSCGSSPVDNQYNPLMATGEGPVETLATYIKSSLLDTQGDFQETPVDQDTVSKAGRHSIATTRNCSSESENCTARNAGEETGESEGPNMVIHVCDEAKSLKEDFICPRDLLISEMKYFAEYLSMDAQRWEEVDISVHCDVHIFNWLIKYVKRNTKESKDCEIPALEPGNVISILISSEFLKMDSLVEQCIQYCHKNMNAIVAAPCNMNCINANLLTRIADLFTHNEIDDLKDKKDKFRSKLFCKKIERLFDPEYSNPDSRNNAATLYRCCLCKKLLTRETERRIPCIPGKINVDRHGNIIYIHIRDKTWDVHEYLNSLFEELKSWRDVYWRLWGTVNWLTCSRCYQAFLCIEFSHCQYHSEVVVYSSTVNSLNTVGTGIYPCCNQKVLRFDPTQLTKGCKVRDHMVVLHDQGENDDSPSCPPAKILDDLHKHKDVIAVPFLKDAVSDPGVGSCDEKGLEYEILLEPNTPWGSKTGELNAFLSLKNWTLQLKQQSLFSEEEEYTTGSEVTEDEVGDEEEIAKKQRKKEKPKKFTKPPKKQLSSPCSQKKEKTLEKSTSRDVSPFVVSMQKNKWDASRSLRFNQDAQREDDQRRMSEITGHLIKMRLGDLDRVKAKESKEFAGGIYSRLEAQVRASVPVTARQNSSDKNQRSKSRFGQGRPA
binds: [1] | [2] | [3]
